Reference: patent US20190298796A1, “Therapeutic Compositions from the Brevinin-1 Family of Peptides and Uses Thereof” (priority 2016, published 2019)
Some entries share one result that the patent states for a list of compounds. Residues, ends and D or L forms follow the SMILES beside them.

Columns and labels:
gram-negative bacteria = type: cell-based; conditions: range over tested gram-negative bacteria
S. aureus (MTCC 9542) = experiment: Killing kinetics; type: cell-based, Staphylococcus aureus; conditions: at MIC concentration

Row | Compound | Activity against gram-negative bacteria (MIC range) (gram-negative bacteria) [µM] | Time taken to completely eliminate the S. aureus (S. aureus (MTCC 9542)) [h]
1 | CC[C@H](C)[C@H](NC(=O)CNC(=O)[C@@H]1CCCN1C(=O)[C@H](Cc1ccccc1)NC(=O)[C@@H](N)Cc1ccccc1)C(=O)N[C@H](C(=O)N[C@@H](CCCCN)C(=O)N[C@H](C(=O)N[C@@H](C)C(=O)N[C@@H](CO)C(=O)N[C@@H](C)C(=O)N[C@H](C(=O)N[C@@H](CC(C)C)C(=O)N1CCC[C@H]1C(=O)N[C@H](C(=O)N[C@@H](C)C(=O)N[C@H](C(=O)N[C@@H](CS)C(=O)N[C@@H](C)C(=O)N[C@H](C(=O)N[C@H](C(=O)N[C@@H](CCCCN)C(=O)N[C@@H](CCCNC(=N)N)C(=O)N[C@@H](CS)C(N)=O)[C@@H](C)O)[C@@H](C)CC)[C@@H](C)CC)[C@@H](C)O)[C@@H](C)CC)C(C)C)[C@@H](C)CC [B1/1 CONH2] (H-FFPGIIKVASAILPTAICAITKRC-NH2; N-terminus assumed) | 10 to 50 | 
2 | CC[C@H](C)[C@H](NC(=O)CNC(=O)[C@@H]1CCCN1C(=O)[C@H](Cc1ccccc1)NC(=O)[C@@H](N)Cc1ccccc1)C(=O)N[C@H](C(=O)N[C@@H](CCCCN)C(=O)N[C@H](C(=O)N[C@@H](C)C(=O)N[C@@H](CO)C(=O)N[C@@H](C)C(=O)N[C@H](C(=O)N[C@@H](CC(C)C)C(=O)N1CCC[C@H]1C(=O)N[C@H](C(=O)N[C@@H](C)C(=O)N[C@H](C(=O)N[C@@H](CS)C(=O)N[C@@H](C)C(=O)N[C@H](C(=O)N[C@H](C(=O)N[C@@H](CCCCN)C(=O)N[C@@H](CCCNC(=N)N)C(=O)N[C@@H](CS)C(=O)O)[C@@H](C)O)[C@@H](C)CC)[C@@H](C)CC)[C@@H](C)O)[C@@H](C)CC)C(C)C)[C@@H](C)CC [B1/1 COOH] (H-FFPGIIKVASAILPTAICAITKRC-OH; N-terminus assumed) |  | 5 to 6
3 | CC[C@H](C)[C@H](NC(=O)CNC(=O)[C@@H]1CCCN1C(=O)[C@H](Cc1ccccc1)NC(=O)[C@@H](N)Cc1ccccc1)C(=O)N[C@H](C(=O)N[C@@H](CCCCN)C(=O)N[C@H](C(=O)N[C@@H](C)C(=O)NCC(=O)N[C@@H](C)C(=O)N[C@H](C(=O)N[C@@H](CC(C)C)C(=O)N1CCC[C@H]1C(=O)N[C@H](C(=O)N[C@@H](C)C(=O)N[C@H](C(=O)N[C@@H](CS)C(=O)N[C@@H](C)C(=O)N[C@H](C(=O)N[C@H](C(=O)N[C@@H](CCCCN)C(=O)N[C@@H](CCCNC(=N)N)C(=O)N[C@@H](CS)C(N)=O)[C@@H](C)O)[C@@H](C)CC)[C@@H](C)CC)[C@@H](C)O)[C@@H](C)CC)C(C)C)[C@@H](C)CC [B1/2 CONH2] (H-FFPGIIKVAGAILPTAICAITKRC-NH2; N-terminus assumed) | 10 to 50 | 
4 | CC[C@H](C)[C@H](NC(=O)CNC(=O)[C@@H]1CCCN1C(=O)[C@H](Cc1ccccc1)NC(=O)[C@@H](N)Cc1ccccc1)C(=O)N[C@H](C(=O)N[C@@H](CCCCN)C(=O)N[C@H](C(=O)N[C@@H](C)C(=O)NCC(=O)N[C@@H](C)C(=O)N[C@H](C(=O)N[C@@H](CC(C)C)C(=O)N1CCC[C@H]1C(=O)N[C@H](C(=O)N[C@@H](C)C(=O)N[C@H](C(=O)N[C@@H](CS)C(=O)N[C@@H](C)C(=O)N[C@H](C(=O)N[C@H](C(=O)N[C@@H](CCCCN)C(=O)N[C@@H](CCCNC(=N)N)C(=O)N[C@@H](CS)C(=O)O)[C@@H](C)O)[C@@H](C)CC)[C@@H](C)CC)[C@@H](C)O)[C@@H](C)CC)C(C)C)[C@@H](C)CC [B1/2 COOH] (H-FFPGIIKVAGAILPTAICAITKRC-OH; N-terminus assumed) |  | 5 to 6
